# From article PMC12548414
# The campaign covered roughly 1,600 compounds. About 20 (1%) showed an effect of 50% or more. Some of the results follow.
# Tested on: T1, E. coli pLC1021 (luc-trpAt trans-translation reporter)
# T1 construct: pLC1021 luc-trpAt reporter strain
# Set-up: species or system Escherichia coli pLC1021; luc-trpAt non-stop luciferase reporter; luminescence rises when trans-translation is inhibited; normalized to KKL-35 and DMSO
# Settings: reporter signal, KKL-35 = 100%; rise means trans-translation inhibition; 2 h, 20 µM
# How it was run: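 Cells carrying the non-stop luc-trpAt reporter were exposed to 20 µM compound for 2 h at room temperature, then Bright-Glo was added and luminescence read at 560 nm after 10 min. Signals were normalised per plate to DMSO and 20 µM KKL-35 wells. Hits: activity one SD above the median; ≥2 biological repeats averaged.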
row,SMILES,% activation [%]
1,O=[N+]([O-])c1ccc(C=Nn2c(CO)nc3ccccc32)s1 [KKL-0991],0
2,O=C(Nc1ccc(-c2nc3ccccc3c(=O)o2)cc1)c1ccccc1I [KKL-1501],2
3,COC(=O)COc1ccc2c(-c3cccc([N+](=O)[O-])c3)cc(=O)oc2c1 [KKL-0762],0
4,COC(=O)[C@@H]1Cc2c([nH]c3ccccc23)[C@H]2C[C@H](NCc3cccnc3)C[C@@H](c3ccc(C(F)(F)F)cc3)N21 [KKL-1613],0
5,COc1ccc(C(=O)NC(=S)Nc2ccc([N+](=O)[O-])cc2O)cc1Br [KKL-1437],5
6,O=C(NCc1ccoc1)N1CCN(Cc2ccc3c(c2)OCO3)CC1 [KKL-1720],3
7,CC(C)(C)c1ncc(C(=O)N2CCc3[nH]c4c(Cl)cccc4c3C2)cn1 [KKL-0673],1
8,COc1ccccc1-c1coc2cc(OCC(=O)OC3CCCCC3)ccc2c1=O [KKL-1400],0
9,COc1ccc2c(c1)NC1(COC3(CCN(Cc4cccc(Cl)c4)CC3)C1)c1cccn1-2 (stereo not shown) [KKL-0328],0
10,c1ccc(Cc2nnc(Sc3ccnc(N4CCN(c5ccncc5)CC4)n3)n2CCN2CCOCC2)cc1 [KKL-1730],0
11,CCOC(=O)C(C)Oc1ccc2c(-c3ccc(OC)cc3)cc(=O)oc2c1 (stereo not shown) [KKL-0763],0
12,Cc1cccc(-c2cc3nc(C)c(C)c(NCCCn4ccnc4)n3n2)c1 [KKL-1630],0
13,COC(=O)C(C)Sc1nnc(-c2ccc(Br)cc2)o1 (stereo not shown) [KKL-0759],0
14,O=C(CSc1ccc(C(F)(F)F)cc1[N+](=O)[O-])OC1CCCCC1 [KKL-1422],1
15,CC(C)(C)NCCCCOc1ccc(Cl)cc1C(C)(C)C [KKL-1275],0
16,CCn1ccnc1CN(C)Cc1cn(-c2ccc(C)cc2)nc1-c1cccc(C)c1 [KKL-0665],0
17,Cc1cccc(NC(=S)NC(=O)CC23CC4CC(CC(C4)C2)C3)c1 [KKL-1311],0
18,COc1ccc(N=c2cc(-c3ccc(O)cc3)oc3ccccc23)cc1 [KKL-0846],0
19,CCOC(=O)c1sc2nc(CSc3ccccc3)nc(N3CCCN(C)CC3)c2c1C [KKL-0828],0
20,Cc1nn(-c2ccccc2)c(S)c1C=Nc1ccccc1O [KKL-0767],0
21,Oc1c(CN2CCc3ccccc3C2)cc(Cl)c2cccnc12 [KKL-0391],42
22,Cc1ccc(NC(=O)C(C)NS(=O)(=O)c2ccc(Cl)cc2)cc1Cl (stereo not shown) [KKL-1552],0

# Compounds listed so far that have a tert-butyl group:
row,SMILES,% activation [%]
7,CC(C)(C)c1ncc(C(=O)N2CCc3[nH]c4c(Cl)cccc4c3C2)cn1 [KKL-0673],1
15,CC(C)(C)NCCCCOc1ccc(Cl)cc1C(C)(C)C [KKL-1275],0

# Some of the entries above in another layout:
row	SMILES	% activation [%]
15	CC(C)(C)NCCCCOc1ccc(Cl)cc1C(C)(C)C [KKL-1275]	0
16	CCn1ccnc1CN(C)Cc1cn(-c2ccc(C)cc2)nc1-c1cccc(C)c1 [KKL-0665]	0

# Remaining list, next part

row,SMILES,% activation [%]
1,COc1ccc(-c2cc([C@H]3CN4CC[C@H]3C[C@@H]4COC(=O)Nc3cccc(C(F)(F)F)c3)n(C)n2)cc1OC [KKL-0324],0
2,Cc1cc(C(F)(F)F)c2c(NCc3cccc4cccnc34)[nH]nc2n1 [KKL-1237],6
3,CCOC(=O)c1cnc(-n2nc(C)cc2C)nc1N(CC)CC [KKL-0372],0
4,Cc1ccc(Sc2ccc(C=O)o2)cc1 [KKL-1483],0
5,COc1ccc(OC(C)C(=O)Nc2ccc(I)cc2)cc1 (stereo not shown) [KKL-1557],0
6,O=C(OCC#CCSc1nnc(-c2ccc(Br)cc2)o1)c1cccs1 [KKL-0368],0
7,Cc1ccc(C2CC(C(F)(F)F)n3ncc(C(=O)NCc4ccco4)c3N2)cc1 (stereo not shown) [KKL-1133],0
8,COC(=O)c1ccc(OCC(=O)Nc2ccccc2F)cc1 [KKL-1334],0
9,O=[N+]([O-])c1cccc(NC(S)=Nc2ccc(Cl)c(Cl)c2)c1 [KKL-1588],0
10,CCOc1cccc(-c2csc(NC(=O)c3cnc(SC)nc3)n2)c1 [KKL-0467],0
11,CCCc1ccc2oc(C(=O)NCCc3ccc(O)cc3)c(C)c2c1 [KKL-1185],2
12,Cc1ccccc1CN1CCC(O)(c2ccc(Cl)c(C(F)(F)F)c2)CC1 [KKL-1761],3
13,CCCCSc1ccc(NCCC(=O)c2ccco2)cc1 [KKL-1462],3
14,CCN(CC)c1ccc(NC(S)=NCCc2ccc(OC)c(OC)c2)cc1 [KKL-1550],0
15,CC1CCN(C(=S)NC(=O)c2ccc(Cl)cc2)CC1 [KKL-0746],13
16,N#Cc1ccccc1NC(=O)CSc1nc2cc3ccccc3cc2[nH]1 [KKL-0612],0
17,O=C(c1ccc2c(c1)no[n+]2[O-])N1CCCC(N2CCN(c3ccc(F)cc3)CC2)C1 (stereo not shown) [KKL-0626],4
18,COc1cccc(CN2CCC(c3c[nH]c4ccc(OC)cc34)C2)c1 (stereo not shown) [KKL-0514],2
19,O=C(Nc1cccc(Cl)c1)c1cc(Br)ccc1Cl [KKL-0866],0
20,O=C(N[C@@H]1CN(C(=O)Nc2ccc(OC(F)(F)F)cc2)CCC[C@H]1O)c1ccc(OCc2ccccc2)cc1 [KKL-0549],1
21,COC(=O)COc1ccc(NC(=O)c2ccccc2Br)cc1 [KKL-1572],0
22,CCN(C(=O)C1CCCCC1)c1nc2c(s1)CCc1oc(C)cc1-2 [KKL-0332],0

row,SMILES,% activation [%]
1,O=C(CSc1ccc(Cl)cc1)Nc1ccc(Cl)c(C(F)(F)F)c1 [KKL-0865],0
2,O=C(Nc1cccnc1)c1c(O)c2cccc3c2n(c1=O)CC3 [KKL-0455],0
3,O=[N+]([O-])c1ccc2[nH]c(CSc3nc4ccccc4o3)nc2c1 [KKL-0291],0
4,CC(C)Cn1ncc2c1CCc1sc(N(C)C(=O)c3noc4c3CCCC4)nc1-2 [KKL-0445],0
5,NC1CCc2nc(-c3ccncc3)nc(Nc3cccc(C(F)(F)F)c3)c2C1 (stereo not shown) [KKL-0541],802
6,CCOC(=O)COc1ccc2c(=O)c(-c3ccccc3Cl)c(C)oc2c1C [KKL-0749],2
7,CCC(NCc1cn(-c2ccc(C)cc2)nc1-c1cccc(C)c1)c1ccncc1 (stereo not shown) [KKL-1165],0
8,Cc1ccc(N=C2C=C(NS(=O)(=O)c3cccs3)c3ccccc3C2=O)c(C)c1 [KKL-1144],0
9,COc1cccc(O)c1CN1CCC(C(=O)Nc2ccc(-c3cccc(C)c3)cc2)CC1 [KKL-0508],0
10,Cc1nc([N+](=O)[O-])c(Br)n1Cc1ccc(Cl)c(Cl)c1 [KKL-1116],0
11,Cc1cc(C)cc(NC(=O)COc2cccc(C=O)c2)c1 [KKL-0574],1
12,S=C(NCCc1ccc(Cl)cc1)Nc1ccc(Nc2ccccc2)cc1 [KKL-1444],4
13,CSCCC(=O)N1CCCC(C(=O)Nc2cccc(-c3ccc(F)cc3)c2)C1 (stereo not shown) [KKL-0635],9
14,CCc1cccc2c(C(=O)COC(=O)c3ccc([N+](=O)[O-])s3)c[nH]c12 [KKL-0796],40
15,O=C(Oc1ccccc1)c1cccc2cccnc12 [KKL-0585],0
16,O=C(Oc1cccc2cccnc12)c1ccco1 [KKL-0756],0
17,O=C(/C=C/c1ccccc1)/C=C/c1ccccc1 [KKL-1604],0
18,CCn1c(C)cc2cc(NC(=O)c3cnc(SC)nc3)ccc21 [KKL-0459],3
19,Fc1ccc(Cc2nnc(-c3ccnc(Nc4ccc(OCCN5CCOCC5)cc4)n3)[nH]2)cc1 [KKL-1879],2
20,O=C(CSc1ccc(Cl)cc1)Nc1ccc(Br)cn1 [KKL-0722],8
21,O=C(Oc1c(Cl)cc(Cl)c2cccnc12)c1ccco1 [KKL-1639],0
22,COc1ccc(Nc2ccccc2NC(=O)c2ccc(O)nc2)cc1 [KKL-1702],2

row,SMILES,% activation [%]
1,CC1CCN(c2nc(-c3ccncc3)nc3ccccc23)CC1 [KKL-1078],1
2,CC(=O)c1ccc(S(=O)(=O)c2ccc(C)cc2)c([N+](=O)[O-])c1 [KKL-0967],8
3,COc1cc(CN2CCC3(C=Cc4ccccc43)CC2)cc2c1OCO2 [KKL-1680],4
4,C[C@H]1CN(C(=O)c2cc(-c3ccc4c(c3)OCO4)on2)[C@@H](C)CN1Cc1ccco1 [KKL-0546],0
5,CCOC(=O)c1c(NC(=O)c2c(F)c(F)c(F)c(F)c2F)sc(C(=O)OC)c1C [KKL-1578],0
6,O=[N+]([O-])c1ccc(N2CCN(C(S)=NCc3ccc(Cl)cc3)CC2)cc1 [KKL-1318],0
7,Cc1ccccc1C1c2[nH]c3ccccc3c2CCN1C(=O)c1cccc(C#CC(C)(C)O)c1 (stereo not shown) [KKL-1154],0
8,COc1ccc2c(c1)CCC1Sc3ccccc3N=C21 (stereo not shown) [KKL-1412],0
9,C1=CC2CC1CC2CN1CCC(N(CCc2ccccc2)Cc2ccccc2)CC1 (stereo not shown) [KKL-0906],0
10,COc1c2ccoc2nc2c(OC)cccc12 [KKL-1232],0
11,Cc1ccccc1/C=C/c1ccc2cccc(O)c2n1 [KKL-0432],11
12,COc1ccc(-c2[nH]c(-c3ccc([N+](=O)[O-])cc3)nc2-c2ccccc2)cc1 [KKL-0418],11
13,COc1ccc2c(c1)NC1(CCN(CC3=Cc4ccccc4OC3)CC1)c1cccn1-2 [KKL-1253],0
14,O=C(NC(Nc1nc2ccc([N+](=O)[O-])cc2s1)(C(F)(F)F)C(F)(F)F)c1ccccc1Cl [KKL-0382],0
15,c1ccc(-c2nc(N3CCCCCC3)nc(-n3ccnc3)n2)cc1 [KKL-1522],1
16,CCCC/C=C/c1cc2ccncc2cc1OC1CCNCC1 [KKL-1813],3
17,Cc1ccc(-n2cc(CN(C)CCn3ccnc3)c(-c3ccc(F)cc3)n2)cc1 [KKL-0654],3
18,COC(=O)COc1ccc(NC(=O)c2ccc3c(c2)C(=O)N(C(C)(C)C)C3=O)cc1 [KKL-1298],0
19,Cc1ccc(-c2csc3ncn(C(C)C(=O)OC4CCCCC4)c(=O)c23)cc1C (stereo not shown) [KKL-0731],0
